The text below walks through data of article PMC12040169 (PLOS Biology, 2025).

Molecules are shown by their SMILES. This is one part of the list.

For the test, the system named is T1, CTL2-GFP (C. trachomatis L2/434/Bu, GFP-expressing).
T1 construct: L2/434/Bu, GFP-expressing
Also on record: species or system HeLa; Intracellular C. trachomatis growth in HeLa cells, bulk GFP fluorescence relative to DMSO. The following applies: bulk GFP, single well; 28.5 h, 10 µM; inhibitor.
For `CC(C)(C)C1=CC2=NC3(CCOCC3)[C@@H]3C[C@@H](O)[C@@H](O)[C@@H]3N2O1` [CBK303244], the “% of control remaining” value was 146.818%. In the case of `CCCc1[nH]nc(O)c1CC1CC1` [CBK081129], the “% of control remaining” value is recorded as 107.243%. As to `N#Cc1ccc(CN2CCN(S(=O)(=O)c3ccc(-c4ccccc4)cc3)CC2)cc1` [CBK062752], the “% of control remaining” value was 105.914%. For `CC1(C)CC(NC(=O)c2cccc([N+](=O)[O-])c2)CC(C)(C)N1` [CBK262952C] the value was 131.114%; for `O=C(Cc1ccsc1)N1CCC(c2cc3cccnc3[nH]2)CC1` [CBK285000], 114.774%; for `CN(C)c1cccc(-c2nc(-c3occc3C=O)cnc2N)c1` [CBK064001], 134.2%. Turning to `O=C(Nc1ccccn1)c1cc(O)c(OCc2ccccc2)cn1` [CBK287989], the “% of control remaining” value was 100.045%. For `O=C(O)CCC1C(=O)CCC1(C(=O)O)c1ccccc1` (stereo not shown) [CBK287208], the “% of control remaining” value turned out to be 99.739%. For the compound `CC(C)c1ccc(CN2CCN(c3nccnc3NS(C)(=O)=O)CC2)cc1` [CBK084271], the “% of control remaining” value is given as 106.162%. For `CN1CCN(CCC(=O)N/N=C/c2ccccn2)CC1` [CBK261501] the value was 98.4108%; for `O=C(O)CCSc1c[nH]c2ccccc12` [CBK262319], 126.548%. For the compound `Nc1ncc(-c2cccc(O)c2)nc1-c1ccc(CCC(=O)O)cc1` [CBK064135], the “% of control remaining” value is given as 102.94%. With `COC(=O)c1ccc(Cn2cc(NC(=O)NCCc3cccs3)cn2)o1` [CBK043825], the “% of control remaining” value is recorded as 131.467%.

In the case of `CC(=O)Nc1ccc(S(=O)(=O)Nc2ccc(S(=O)(=O)Nc3cc(C)ccc3C)cc2)cc1` [CBK264745], the “% of control remaining” value was 100%. For `O=C(c1ccsc1)N1CCC2(CC1)CN(Cc1ccccc1)CC(c1ccccc1)O2` (stereo not shown) [CBK286438], the “% of control remaining” value came out at 44.4862%.

Take `O=C(NCc1ccco1)c1nccnc1-c1ccc(COc2ccc3c(c2)CCCC3)cc1` [CBK050851]: the “% of control remaining” value turned out to be 144.124%. For the compound `CCCNC(=O)N1CCC(n2c(C)nc3cccnc32)CC1` [CBK282292], the “% of control remaining” value worked out at 120.385%. As for `O=C(CN1CCC(O)(Cn2cnc3ccccc32)CC1)c1ccc(-c2ccccc2)cc1` [CBK286306], the “% of control remaining” value turned out to be 126.042%.

Regarding `COc1ccccc1-c1ncc(OCC(F)(F)F)nc1NC(=O)C1CC1` [CBK145275], the “% of control remaining” value worked out at 114.608%. Turning to `CCc1ccc(C(=O)NC(Cc2c[nH]c3ccccc23)C(=O)O)cc1` (stereo not shown) [CBK269556], the “% of control remaining” value is given as 107.334%.

As for `C=CCOC(=O)N1CCC(C(=O)N(C)C(c2cccc(OC)c2)c2ccccn2)CC1` (stereo not shown) [CBK060244], the “% of control remaining” value turned out to be 142.797%. Then `O=C(c1ccccc1)N1C[C@@H](c2ccsc2)[C@@H]2CN(Cc3ccc(Cl)cc3)CC[C@@H]21` [CBK285615], with 64.0237%.

As to `CC(=O)NCCC(CN1CCOCC1)([N+](=O)[O-])[N+](=O)[O-]` [CBK261338], the “% of control remaining” value was 100%. On to `O=C(CCn1c(C(F)(F)F)cc2cccnc21)NCc1cccnc1` [CBK284865], for which the “% of control remaining” value amounted to 121.877%. Turning to `CN1CCN(c2ccc(-c3cccc(N(C)C)c3)cn2)CC1` [CBK037621], the “% of control remaining” value is reported as 149.748%. With `CC[C@H]1CCCCN1C(=O)c1sc2nc(C(C)=O)ccc2c1Cl` [CBK091046], the “% of control remaining” value is 99.9157%.

With `O=C(CN(c1cc(Cl)ccc1Cl)S(=O)(=O)c1ccccc1)Nc1cccnc1` [CBK268708], the “% of control remaining” value came out at 111.702%. Take `Cc1ccc2[nH]c(Cc3ccc(NC(=O)c4cccc5c(=O)cc(C)[nH]c45)cc3)nc2c1` [CBK285814]: the “% of control remaining” value is on record as 129.206%. Regarding `Cc1cccnc1NC(=O)c1cccc(C(=O)Nc2ncccc2C)c1` [CBK262184], the “% of control remaining” value is recorded as 112.038%.

As for `Cc1cc(CSc2ccccc2)ccc1NC(=O)/C=C/c1cccc([N+](=O)[O-])c1` [CBK264687], the “% of control remaining” value is 114.796%. As for `COc1ccc(-c2c[n+]3ccccc3c(=O)[nH]2)cc1` [CBK011078B], the “% of control remaining” value came out at 122.801%. On to `C=CCn1c(Cc2csc(NC(=O)c3cnc(SC)n3-c3ccccc3)n2)n[nH]c1=S` [CBK297786], for which the “% of control remaining” value is reported as 139.485%.

As to `Clc1ccc(COc2cccc(CNCCN3CCOCC3)c2)cc1` [CBK278227C], the “% of control remaining” value is recorded as 116.868%.

As for `Cn1cccc1C(=O)N[C@H]1CCN2C(=O)N(c3ccc(OC(F)(F)F)cc3)C(=O)[C@@H]2C1` [CBK289548], the “% of control remaining” value stood at 114.098%. On to `CN(Cc1nc2c(s1)CCCC2)C(=O)c1ccc2[nH]cnc2c1` [CBK304138], for which the “% of control remaining” value is 127.551%. Then `COc1ncc(-c2cccc(NCC(c3cccnc3)N(C)C)n2)c(OC)n1` (stereo not shown) [CBK037723], with 157.862%; and `CCOc1ccc(-c2ccnc(C)n2)cc1C(=O)O` [CBK306505], with 137.427%. Then `Nc1cc2ccccc2c(-c2cc(F)cc(F)c2)n1` [CBK085711], with 101.156%; and `Cc1ccc2c(c1)nc(CNC(=O)NC1CCCc3cn[nH]c31)n2C` (stereo not shown) [CBK305554], with 119.754%.

Regarding `COc1ccc(C(=O)N[C@H]2CO[C@H]3[C@@H]2OC[C@H]3OC(=O)Nc2ccccc2)cc1` [CBK289463], the “% of control remaining” value is on record as 101.252%. As to `CC1(C)CC(NC(=O)CCc2cc(C(C)(C)C)c(O)c(C(C)(C)C)c2)CC(C)(C)N1` [CBK261986], the “% of control remaining” value is on record as 87.0164%. With `O=C(O)c1csc(S(=O)(=O)Nc2ccc(Br)cc2Cl)c1` [CBK297731], the “% of control remaining” value is recorded as 151.644%. Consider `CCOC(=O)c1c(-c2ccccc2)csc1NS(=O)(=O)c1ccc(C)cc1` [CBK015841], for which the “% of control remaining” value was found to be 111.413%. In the case of `COc1ccc(C(=O)Nc2cc3ccccc3c(N3CCNCC3)n2)cc1` [CBK036344T], the “% of control remaining” value is 86.8844%. As to `Cc1ccc(C(=O)Nc2nc3ccc4nc(C)sc4c3s2)cc1` [CBK287305], the “% of control remaining” value amounted to 125.371%. Then `Cn1cnnc1SCC(C)(C)NS(=O)(=O)c1ccccc1` [CBK268276], with 110.693%; and `O=C(NC(=O)N1CCC2(CC1)NCCc1c2[nH]c2ccc(O)cc12)c1ccccc1` [CBK046936], with 128.658%; and `COc1ccc(CN2CCN(Cc3ccccc3[N+](=O)[O-])CC2)c(OC)c1` [CBK263340], with 116.868%.

Take `Cc1nn2c3ccccc3nc2n1CCN1CCCCC1` [CBK278256C]: the “% of control remaining” value came to 94.4189%.
